The target of the test is T1, phospholamban (mouse (endogenous in mouse heart)) (UniProt P61014).
T1 sequence: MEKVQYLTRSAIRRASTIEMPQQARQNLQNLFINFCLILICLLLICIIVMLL
The test is described as follows: co-IP.

Chains of the proteins cited; added tags and fusions are not shown.
UniProt Q9JHG7: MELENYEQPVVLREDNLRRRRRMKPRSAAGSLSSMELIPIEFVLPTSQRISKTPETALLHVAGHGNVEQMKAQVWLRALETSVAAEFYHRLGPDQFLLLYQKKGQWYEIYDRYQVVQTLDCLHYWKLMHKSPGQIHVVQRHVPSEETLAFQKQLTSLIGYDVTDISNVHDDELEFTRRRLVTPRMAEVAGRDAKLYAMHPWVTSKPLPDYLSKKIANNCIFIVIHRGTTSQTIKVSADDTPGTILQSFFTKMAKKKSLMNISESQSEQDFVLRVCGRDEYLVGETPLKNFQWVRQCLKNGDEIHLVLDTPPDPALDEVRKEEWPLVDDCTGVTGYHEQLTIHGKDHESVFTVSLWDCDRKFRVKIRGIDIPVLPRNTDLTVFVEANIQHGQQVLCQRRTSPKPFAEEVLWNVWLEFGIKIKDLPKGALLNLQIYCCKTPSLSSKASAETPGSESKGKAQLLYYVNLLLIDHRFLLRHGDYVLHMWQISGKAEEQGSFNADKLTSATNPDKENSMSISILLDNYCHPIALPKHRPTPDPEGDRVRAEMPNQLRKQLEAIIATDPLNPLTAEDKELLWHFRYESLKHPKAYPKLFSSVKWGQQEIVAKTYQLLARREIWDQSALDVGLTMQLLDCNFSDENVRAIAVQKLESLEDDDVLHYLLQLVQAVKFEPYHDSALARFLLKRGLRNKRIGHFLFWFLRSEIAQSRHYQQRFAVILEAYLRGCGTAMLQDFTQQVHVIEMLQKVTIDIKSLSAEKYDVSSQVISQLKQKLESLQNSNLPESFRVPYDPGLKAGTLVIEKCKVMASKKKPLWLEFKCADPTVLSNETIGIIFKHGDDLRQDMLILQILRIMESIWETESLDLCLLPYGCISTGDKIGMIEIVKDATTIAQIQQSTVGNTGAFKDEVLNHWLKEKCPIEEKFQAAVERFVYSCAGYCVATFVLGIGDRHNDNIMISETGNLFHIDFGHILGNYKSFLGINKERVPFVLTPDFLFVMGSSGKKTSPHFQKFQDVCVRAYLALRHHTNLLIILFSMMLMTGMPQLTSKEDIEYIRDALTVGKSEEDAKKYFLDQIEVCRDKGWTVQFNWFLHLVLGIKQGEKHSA

No constants are given. Whether binding was seen depends on the method and setting. In cells and extracts the contact can be indirect. Some entries that bind do so weakly or less than the wild type.

In the case of “Phosphoinositide 3-kinase (PI3Kγ) (from UniProt Q9JHG7 1-1102) (enzyme)”, the binding result is reported as “binds”.

Source of the values: doi:10.1101/2021.05.11.443650.
